PubChem BioAssay AID686938 | Drosophila RNAi Screening Center | 2013
Assay: 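Fly genes required for calcium entry once internal stores are emptied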 (primary screen). Cells: Drosophila S2R+ cells. Knock-down reagent: long dsRNA against Drosophila genes, about 0.25 µg dsRNA per well, roughly 10,000 cells. Time to read-out: 5 days of knock-down before the calcium assay. Challenge: thapsigargin (SERCA pump blocker) to empty calcium stores; entry signal taken 4 min after adding it. Detection: 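Duplicate raw fluo-4 intensities per well from a plate reader, at rest and four minutes after thapsigargin emptied calcium stores; entry-to-rest ratio filled for only some wells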. Scale: calcium entry signal: higher = stronger calcium signal after store depletion; entry to resting ratio: higher = more calcium entry relative to resting level; resting calcium signal: higher = higher resting calcium signal. Active means: 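Called when the plate z-score of the entry-to-rest ratio, mean of duplicates, falls below −3; wells with low overall dye signal (Fmax z below −2) or more than five off-targets excluded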. Calls: active = strongly reduced calcium entry; inactive = no strong reduction.
In all, the deposit lists about 23,000 reagents; this is a random part of those with a known target gene and a result. In the full data, 75 (0.33%) were called active. 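Raw plate signals without normalisation; calls rest on plate z-scores that were not deposited; ratio present for only 364 wells.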 Names joined by + are all predicted targets of the reagent. Not given: the dose of the treatment.

target	DRSC id	calcium entry signal, replicate 1 (fluorescence units)	calcium entry signal, replicate 2 (fluorescence units)	entry to resting ratio	resting calcium signal, replicate 1 (fluorescence units)	resting calcium signal, replicate 2 (fluorescence units)	activity call
Gycbeta100B	DRSC14039	3.64e7	4.47e7		2.14e7	2.01e7	inactive
Gycbeta100B	DRSC14040	3.73e7	4.65e7		2.12e7	2.09e7	inactive
Gycbeta100B	DRSC16691	4.04e7	5.44e7		1.65e7	2.31e7	inactive
Poxm	DRSC16793	3.19e7	5.26e7		1.60e7	2.40e7	inactive
Poxm	DRSC22839	2.88e7	4.48e7		1.39e7	1.90e7	inactive
twe	DRSC03628	4.57e7			2.19e7		inactive
CG10638	DRSC09762	2.84e7	2.95e7		1.60e7	1.31e7	inactive
Zyx	DRSC17186	3.88e7	4.39e7		1.97e7	1.95e7	inactive
Tret1-1	DRSC07046	3.14e7	3.57e7		1.58e7	1.66e7	inactive
Tret1-1	DRSC07048	2.93e7	3.75e7		1.57e7	1.77e7	inactive
Lip3	DRSC16727	2.59e7	2.74e7		1.39e7	1.42e7	inactive
Cbl	DRSC10764	2.96e7	4.59e7		1.45e7	2.06e7	inactive
Cbl	DRSC11111	2.94e7	4.72e7		1.57e7	2.08e7	inactive
vri	DRSC03633	4.50e7	4.59e7		2.53e7	2.14e7	inactive
vri	DRSC23174	5.57e7	2.64e7		2.70e7	1.28e7	inactive
PIG-N	DRSC06837	3.91e7	3.56e7		1.80e7	1.64e7	inactive
CG14757	DRSC06492	3.78e7	2.78e7		1.74e7	1.72e7	inactive
CG7168	DRSC16208	3.64e7	3.76e7		1.74e7	1.70e7	inactive
CG31637	DRSC02270	4.81e7			2.38e7		inactive
CG31637	DRSC03263	1.97e7	1.64e7		1.09e7	8.79e6	inactive
CG8135 + BBIP1	DRSC12739	2.06e7	4.54e7		1.09e7	1.78e7	inactive
CG8135 + BBIP1	DRSC16384	2.70e7	2.27e7		1.48e7	1.29e7	inactive
CG34444	DRSC06435	2.13e7	3.47e7		1.11e7	1.39e7	inactive
Golgin245	DRSC04374	4.27e7			2.20e7		inactive
Golgin245	DRSC22012	2.14e7	3.18e7		1.10e7	1.74e7	inactive
Lst8	DRSC18262	3.51e7	4.41e7		1.55e7	1.98e7	inactive
Stam	DRSC03444	4.78e7			2.12e7		inactive
tok	DRSC17087	4.18e7	3.92e7		1.83e7	1.58e7	inactive
CG3650	DRSC04401	4.15e7	4.57e7		2.22e7	2.25e7	inactive
CG3492	DRSC04373	3.77e7			1.96e7		inactive
CG8349	DRSC03083	3.57e7	4.94e7		1.66e7	2.10e7	inactive
CG8289	DRSC20101	3.93e7	3.99e7		1.83e7	1.73e7	inactive
Prp4k	DRSC08144	3.53e7	3.06e7		1.64e7	1.55e7	inactive
Cont	DRSC12149	4.54e7	4.99e7		2.05e7	3.63e7	inactive
CG12237	DRSC19449	3.91e7	7.81e7		1.87e7	2.92e7	inactive
CG12237	DRSC22256	1.97e7	2.63e7		1.02e7	1.34e7	inactive
Rab26	DRSC11837	3.28e7	4.05e7		1.60e7	2.51e7	inactive
Rab26	DRSC11838	2.04e7	3.27e7		9.48e6	1.50e7	inactive
Rab26	DRSC11839	2.36e7	3.41e7		1.15e7	1.48e7	inactive
Vha36-1	DRSC07098	2.72e7	2.87e7		1.48e7	1.60e7	inactive
CG30379	DRSC05070	3.17e7	5.33e7		1.57e7	2.18e7	inactive
CG14621	DRSC20635	4.63e7	4.82e7		2.20e7	2.01e7	inactive
CG13675	DRSC08908	2.18e7	3.15e7		1.40e7	1.41e7	inactive
CG13675	DRSC10034	2.13e7	1.96e7		1.27e7	1.19e7	inactive
CG13675	DRSC23124	5.23e7	3.22e7		2.36e7	1.44e7	inactive
ImpE3	DRSC16716	4.60e7	2.88e7		2.22e7	1.44e7	inactive
CG5790	DRSC02896	3.68e7			1.80e7		inactive
futsch	DRSC17688	2.98e7	4.40e7		1.67e7	1.74e7	inactive
futsch	DRSC17949	2.79e7	5.51e7	2	1.42e7	2.86e7	inactive
futsch	DRSC17952	2.95e7	3.66e7		1.37e7	1.73e7	inactive
futsch	DRSC18543	2.28e7	3.88e7	2	1.16e7	1.60e7	inactive
Pbp95	DRSC15448	5.12e7	4.42e7		2.46e7	2.20e7	inactive
CG17593	DRSC00504	4.20e7	3.31e7		1.82e7	1.51e7	inactive
Lsp1beta	DRSC00757	4.42e7			2.66e7		inactive
Crys	DRSC03294	4.28e7			1.94e7		inactive
CG15482	DRSC02492	5.67e7	3.63e7		2.47e7	1.69e7	inactive
Prp31	DRSC10735	2.27e7	3.11e7		1.31e7	2.36e7	inactive
CG14456	DRSC11713	2.40e7	3.38e7		1.17e7	1.52e7	inactive

Individual results from above:
Value of Poxm [DRSC16793] in “calcium entry signal, replicate 2 (fluorescence units)”: 5.26e7
For “resting calcium signal, replicate 2 (fluorescence units)”, Gycbeta100B [DRSC14039] reads 2.01e7
CG15482 [DRSC02492], calcium entry signal, replicate 2 (fluorescence units): 3.63e7
Entry of Lip3 [DRSC16727] in “resting calcium signal, replicate 2 (fluorescence units)”: 1.42e7
Under “calcium entry signal, replicate 1 (fluorescence units)”, CG8289 [DRSC20101] reads 3.93e7
For “activity call”, Golgin245 [DRSC22012] has inactive
